Test results published in PMC3630203.
These are yes or no findings as the source states them, for the method shown. Some results given as binding are weak or reduced against the parent protein; the word gives no strength.

Protein sequences, listed by entry. Tags and fused reporters are not part of them. Lines headed by an entry give the natural chain unless they say otherwise; changes in a name come on top.
UniProt P04003: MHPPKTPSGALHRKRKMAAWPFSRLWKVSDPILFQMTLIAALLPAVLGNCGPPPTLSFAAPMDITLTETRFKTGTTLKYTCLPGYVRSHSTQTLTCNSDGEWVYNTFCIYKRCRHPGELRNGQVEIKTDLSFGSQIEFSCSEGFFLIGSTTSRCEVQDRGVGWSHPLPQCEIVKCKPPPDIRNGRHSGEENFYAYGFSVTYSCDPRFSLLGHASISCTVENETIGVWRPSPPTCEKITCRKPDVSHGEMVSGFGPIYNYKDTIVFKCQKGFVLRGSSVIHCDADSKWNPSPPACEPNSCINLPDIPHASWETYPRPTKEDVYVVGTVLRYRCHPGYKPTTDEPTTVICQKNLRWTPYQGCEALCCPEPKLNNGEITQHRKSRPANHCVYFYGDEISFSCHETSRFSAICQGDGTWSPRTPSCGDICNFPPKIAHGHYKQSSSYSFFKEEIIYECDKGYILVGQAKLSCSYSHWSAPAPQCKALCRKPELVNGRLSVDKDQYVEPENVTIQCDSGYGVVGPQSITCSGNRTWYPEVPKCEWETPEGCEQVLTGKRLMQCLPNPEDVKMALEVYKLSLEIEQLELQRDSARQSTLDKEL
UniProt P20851: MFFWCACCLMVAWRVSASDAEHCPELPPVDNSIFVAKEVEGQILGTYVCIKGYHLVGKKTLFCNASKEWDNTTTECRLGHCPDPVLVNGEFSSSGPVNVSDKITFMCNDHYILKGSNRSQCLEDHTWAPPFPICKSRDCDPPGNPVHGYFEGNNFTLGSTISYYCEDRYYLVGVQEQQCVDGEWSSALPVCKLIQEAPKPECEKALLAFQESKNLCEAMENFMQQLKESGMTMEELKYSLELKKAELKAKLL

Target: T1, purified recombinant M4 protein (Streptococcus pyogenes) (UniProt P13050)
T1 sequence: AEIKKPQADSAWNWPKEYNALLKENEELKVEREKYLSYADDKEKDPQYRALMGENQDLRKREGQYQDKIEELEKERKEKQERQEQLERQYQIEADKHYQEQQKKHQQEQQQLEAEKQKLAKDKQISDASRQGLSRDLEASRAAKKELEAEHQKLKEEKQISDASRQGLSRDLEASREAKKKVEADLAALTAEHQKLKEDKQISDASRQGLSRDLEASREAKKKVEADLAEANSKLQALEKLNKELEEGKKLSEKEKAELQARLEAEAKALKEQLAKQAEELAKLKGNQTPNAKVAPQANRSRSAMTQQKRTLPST
Experiment: solid-phase binding test in microtiter wells (antibody and radiolabeled protein G detection); both purified

For “human C4BP (from UniProt P04003;P20851) (complex)”, the binding was “binds”.
